According to patent US9978954B2, “Benzobis (thiadiazole) derivative, ink comprising same, and organic electronic device comprising same” (UBE INDUSTRIES, LTD., priority 2013, dated 2018):
Some compounds share one wording; it may come from a single statement.

Assays:
[1] = Field-effect mobility of organic TFT, organic semiconductor layer by spin-coating; conditions: drain voltage 100 V
[2] = Field-effect mobility of organic TFT, organic semiconductor layer by vacuum deposition, incl. after being left in the atmosphere; conditions: drain voltage 100 V, initial
[3] = ink 0.3 wt % in mesitylene heated at 130° C., PS substrate, no annealing
[4] = ink 0.1 wt % in chloroform heated at 70° C., bare substrate, heated at 180° C. for 35 minutes
[5] = ink 0.1 wt % in chloroform heated at 70° C., PVP substrate, heated at 180° C. for 35 minutes
[6] = ink 0.1 wt % in chloroform heated at 60° C., bare substrate, heated at 180° C. for 35 minutes
[7] = ink 0.1 wt % in chloroform prepared at room temperature, bare substrate, no annealing
[8] = ink 0.3 wt % in mesitylene heated at 130° C., PVP substrate, heated at 180° C. for 35 minutes

Compound: FC(F)(F)c1cccc(-c2ccc(-c3c4c(c(-c5ccc(-c6cccc(C(F)(F)F)c6)s5)c5nsnc35)N=S=N4)s2)c1 [Compound (C2), 4,8-bis[5-(3-(trifluoromethyl)phenyl)thiophene-2-yl]benzo[1,2-c:4,5-c′]bis[1,2,5]thiadiazole]
- field-effect mobility (μ) ([1]; ink 0.3 wt % in chlorobenzene heated at 130° C., CYC substrate, heated at 150° C. for 35 minutes): 4.5×10^−1 cm^2/Vs
- field-effect mobility (μ) ([1]; ink 0.3 wt % in chlorobenzene heated at 130° C., PS substrate, no annealing): 2.9×10^−2 cm^2/Vs
- field-effect mobility (μ) ([1]; ink 0.3 wt % in chlorobenzene heated at 130° C., PVP substrate, heated at 120° C. for 35 minutes): 3.4×10^−1 cm^2/Vs
- field-effect mobility (μ) ([2]; HMDS-modified substrate): 3.9×10^−1 cm^2/Vs
- field-effect mobility (μ) ([2]; PS substrate): 1.4×10^−2 cm^2/Vs

Compound: FC(F)(F)c1cc(-c2ccc(-c3c4c(c(-c5ccc(-c6cc(C(F)(F)F)cc(C(F)(F)F)c6)s5)c5nsnc35)N=S=N4)s2)cc(C(F)(F)F)c1 [Compound (C3), 4,8-bis[5-(3,5-bis(trifluoromethyl)phenyl)thiophene-2-yl]benzo[1,2-c:4,5-c′]bis[1,2,5]thiadiazole]
- field-effect mobility (μ) ([2]; HMDS-modified substrate): 1.8×10^−4 cm^2/Vs
- field-effect mobility (μ) ([2]; PS substrate): 5.2×10^−4 cm^2/Vs

Compound: FC(F)(F)Sc1cccc(-c2ccc(-c3c4c(c(-c5ccc(-c6cccc(SC(F)(F)F)c6)s5)c5nsnc35)N=S=N4)s2)c1 [Compound (C6), 4,8-bis[5-(3-((trifluoromethyl)thio)phenyl)thiophene-2-yl]benzo[1,2-c:4,5-c′]bis[1,2,5]thiadiazole]
- field-effect mobility (μ) ([1]; ink 0.3 wt % in mesitylene heated at 130° C., CYC substrate, no annealing): 4.2×10^−2 cm^2/Vs
- field-effect mobility (μ) [1, 3]: 2.1×10^−2 cm^2/Vs
- field-effect mobility (μ) ([1]; ink 0.3 wt % in mesitylene heated at 130° C., PVP substrate, heated at 120° C. for 35 minutes): 3.9×10^−1 cm^2/Vs
- field-effect mobility (μ) ([2]; HMDS-modified substrate): 4.0×10^−1 cm^2/Vs
- field-effect mobility (μ) ([2]; PS substrate): 9.3×10^−2 cm^2/Vs

Compound: CCCCCCc1cc(-c2ccc(-c3c4c(c(-c5ccc(-c6cc(CCCCCC)c(C#N)c(CCCCCC)c6)s5)c5nsnc35)N=S=N4)s2)cc(CCCCCC)c1C#N [Compound (C22), 4,8-bis[5-(4-cyano-3,5-dihexylphenyl)thiophene-2-yl]benzo[1,2-c:4,5-c′]bis[1,2,5]thiadiazole]
- field-effect mobility (μ) ([1]; ink 0.1 wt % in chloroform prepared at room temperature, PVP substrate, heated at 120° C. for 35 minutes): did not have the transistor characteristics
- field-effect mobility (μ) ([1]; ink 0.1 wt % in chloroform prepared at room temperature, bare substrate, heated at 120° C. for 35 minutes): did not have the transistor characteristics

Compound: CCCCCCCCc1cc(-c2ccc(-c3c4c(c(-c5ccc(-c6ccc(C(F)(F)F)c(CCCCCCCC)c6)s5)c5nsnc35)N=S=N4)s2)ccc1C(F)(F)F [Compound (C24), 4,8-bis[5-(3-octyl-4-(trifluoromethyl)phenyl)thiophene-2-yl]benzo[1,2-c:4,5-c′]bis[1,2,5]thiadiazole]
- field-effect mobility (μ) ([1]; ink 0.1 wt % in chloroform heated at 70° C., PVP substrate, heated at 150° C. for 35 minutes): 8.5×10^−1 cm^2/Vs
- field-effect mobility (μ) [1, 4]: 7.3×10^−1 cm^2/Vs

Compound: CCCCCCCCc1ccc(-c2ccc(-c3c4c(c(-c5ccc(-c6ccc(CCCCCCCC)c(C(F)(F)F)c6)s5)c5nsnc35)N=S=N4)s2)cc1C(F)(F)F [Compound (C25), 4,8-bis[5-(4-octyl-3-(trifluoromethyl)phenyl)thiophene-2-yl]benzo[1,2-c:4,5-c′]bis[1,2,5]thiadiazole]
- field-effect mobility (μ) [1, 5]: 1.1×10^0 cm^2/Vs
- field-effect mobility (μ) [1, 4]: 4.4×10^−1 cm^2/Vs

Compound: CCCCCCCCc1ccc(-c2ccc(-c3c4c(c(-c5ccc(-c6ccc(CCCCCCCC)c(C#N)c6)s5)c5nsnc35)N=S=N4)s2)cc1C#N [Compound (C26), 4,8-bis[5-(3-cyano-4-octylphenyl)thiophene-2-yl]benzo[1,2-c:4,5-c′]bis[1,2,5]thiadiazole]
- field-effect mobility (μ) ([1]; ink 0.1 wt % in chloroform prepared at room temperature, PVP substrate, heated at 180° C. for 35 minutes): 5.1×10^−3 cm^2/Vs
- field-effect mobility (μ) ([1]; ink 0.1 wt % in chloroform prepared at room temperature, bare substrate, heated at 180° C. for 35 minutes): 2.5×10^−3 cm^2/Vs

Compound: CCCCCCCCCCCCc1cc(-c2ccc(-c3c4c(c(-c5ccc(-c6ccc(C(F)(F)F)c(CCCCCCCCCCCC)c6)s5)c5nsnc35)N=S=N4)s2)ccc1C(F)(F)F [Compound (C27), 4,8-bis[5-(3-dodecyl-4-(trifluoromethyl)phenyl)thiophene-2-yl]benzo[1,2-c:4,5-c′]bis[1,2,5]thiadiazole]
- field-effect mobility (μ) ([1]; ink 0.1 wt % in chloroform heated at 60° C., PVP substrate, heated at 150° C. for 35 minutes): 1.9×10^0 cm^2/Vs
- field-effect mobility (μ) [1, 6]: 1.1×10^0 cm^2/Vs

Compound: CCCCCCCCCCCCc1ccc(-c2ccc(-c3c4c(c(-c5ccc(-c6ccc(CCCCCCCCCCCC)c(C(F)(F)F)c6)s5)c5nsnc35)N=S=N4)s2)cc1C(F)(F)F [Compound (C28), 4,8-bis[5-(4-dodecyl-3-(trifluoromethyl)phenyl)thiophene-2-yl]benzo[1,2-c:4,5-c′]bis[1,2,5]thiadiazole]
- field-effect mobility (μ) [1, 5]: 1.7×10^0 cm^2/Vs
- field-effect mobility (μ) [1, 4]: 8.0×10^−1 cm^2/Vs

Compound: CCCCC(CC)Cc1cc(-c2ccc(-c3c4c(c(-c5ccc(-c6ccc(C(F)(F)F)c(CC(CC)CCCC)c6)s5)c5nsnc35)N=S=N4)s2)ccc1C(F)(F)F (stereo not drawn) [Compound (C30)]
- field-effect mobility (μ) ([1]; ink 0.1 wt % in chloroform heated at 60° C., PVP substrate, heated at 180° C. for 35 minutes): 1.7×10^0 cm^2/Vs
- field-effect mobility (μ) [1, 6]: 8.9×10^−1 cm^2/Vs

Compound: CCCCC(CC)Cc1ccc(-c2ccc(-c3c4c(c(-c5ccc(-c6ccc(CC(CC)CCCC)c(C(F)(F)F)c6)s5)c5nsnc35)N=S=N4)s2)cc1C(F)(F)F (stereo not drawn) [Compound (C31)]
- field-effect mobility (μ) ([1]; ink 0.1 wt % in chloroform prepared at room temperature, PVP substrate, heated at 150° C. for 35 minutes): 4.7×10^−1 cm^2/Vs
- field-effect mobility (μ) [1, 7]: 5.1×10^−1 cm^2/Vs

Compound: FC(F)(F)Oc1ccc(-c2ccc(-c3c4c(c(-c5ccc(-c6ccc(OC(F)(F)F)cc6)s5)c5nsnc35)N=S=N4)s2)cc1 [Compound (RC1), 4,8-bis[5-(4-(trifluoromethoxy)phenyl)thiophene-2-yl]benzo[1,2-c:4,5-c′]bis[1,2,5]thiadiazole, reference compound]
- field-effect mobility (μ) [1, 3]: 7.0×10^−4 cm^2/Vs
- field-effect mobility (μ) [1, 8]: did not have the transistor characteristics
- field-effect mobility (μ) ([2]; HMDS-modified substrate): 5.8×10^−1 cm^2/Vs
- field-effect mobility (μ) ([2]; PS substrate): 1.2×10^0 cm^2/Vs

Compound: FC(F)(F)c1ccc(-c2ccc(-c3c4c(c(-c5ccc(-c6ccc(C(F)(F)F)cc6)s5)c5nsnc35)N=S=N4)s2)cc1 [Compound (RC2), 4,8-bis[5-(4-(trifluoromethyl)phenyl)thiophene-2-yl]benzo[1,2-c:4,5-c′]bis[1,2,5]thiadiazole, reference compound]
- field-effect mobility (μ) ([2]; HMDS-modified substrate): 3.9×10^−1 cm^2/Vs
- field-effect mobility (μ) ([2]; PS substrate): 4.1×10^−1 cm^2/Vs

Compound: CCCCCCCCCCC(F)(F)c1ccc(-c2ccc(-c3c4c(c(-c5ccc(-c6ccc(C(F)(F)CCCCCCCCCC)cc6)s5)c5nsnc35)N=S=N4)s2)cc1 [Compound (RC3), 4,8-bis[5-(4-(1,1-difluoroundecyl)phenyl)thiophene-2-yl]benzo[1,2-c:4,5-c′]bis[1,2,5]thiadiazole, reference compound]
- field-effect mobility (μ) ([1]; ink 0.3 wt % in 1,2-dichlorobenzene heated at 130° C., PS substrate, heated at 180° C. for 35 minutes): 1.0×10^−1 cm^2/Vs
- field-effect mobility (μ) ([1]; ink 0.3 wt % in 1,2-dichlorobenzene heated at 130° C., PVP substrate, no annealing): 6.0×10^−2 cm^2/Vs

Compound: FC(F)(F)Sc1ccc(-c2ccc(-c3c4c(c(-c5ccc(-c6ccc(SC(F)(F)F)cc6)s5)c5nsnc35)N=S=N4)s2)cc1 [Compound (RC5), 4,8-bis[5-(4-((trifluoromethyl)thio)phenyl)thiophene-2-yl]benzo[1,2-c:4,5-c′]bis[1,2,5]thiadiazole, reference compound]
- field-effect mobility (μ) ([2]; HMDS-modified substrate): 3.9×10^−1 cm^2/Vs
- field-effect mobility (μ) ([2]; PS substrate): 7.1×10^−1 cm^2/Vs

Compound: CCCCCCc1cc(-c2c3c(c(-c4cc(CCCCCC)c(-c5ccc(C#N)cc5)s4)c4nsnc24)N=S=N3)sc1-c1ccc(C#N)cc1 [Compound (RC6), 4,8-bis[4-hexyl-5-(3-(2-methylhexyl)-4-(trifluoromethyl)phenyl)thiophene-2-yl]benzo[1,2-c:4,5-c′]bis[1,2,5]thiadiazole, reference compound]
- field-effect mobility (μ) ([1]; ink 0.1 wt % in chloroform prepared at room temperature, PVP substrate, no annealing): did not have the transistor characteristics
- field-effect mobility (μ) [1, 7]: did not have the transistor characteristics

Compound: FC(F)(F)Oc1ccccc1-c1ccc(-c2c3c(c(-c4ccc(-c5ccccc5OC(F)(F)F)s4)c4nsnc24)N=S=N3)s1 [Compound (RR1), 4,8-bis[5-(2-(trifluoromethoxy)phenyl)thiophene-2-yl]benzo[1,2-c:4,5-c′]bis[1,2,5]thiadiazole, reference compound]
- field-effect mobility (μ) [1, 3]: 6.2×10^−5 cm^2/Vs
- field-effect mobility (μ) [1, 8]: did not have the transistor characteristics
- field-effect mobility (μ) ([2]; HMDS-modified substrate): 6.4×10^−2 cm^2/Vs
- field-effect mobility (μ) ([2]; PS substrate): 1.7×10^−1 cm^2/Vs

Compound: FC(F)(F)c1ccccc1-c1ccc(-c2c3c(c(-c4ccc(-c5ccccc5C(F)(F)F)s4)c4nsnc24)N=S=N3)s1 [Compound (RR2), 4,8-bis[5-(2-(trifluoromethyl)phenyl)thiophene-2-yl]benzo[1,2-c:4,5-c′]bis[1,2,5]thiadiazole, reference compound]
- field-effect mobility (μ) ([1]; ink 0.3 wt % in mesitylene heated at 60° C., PS substrate, no annealing): did not have the transistor characteristics
- field-effect mobility (μ) ([1]; ink 0.3 wt % in mesitylene heated at 60° C., PVP substrate, heated at 120° C. for 35 minutes): 5.1×10^−2 cm^2/Vs
- field-effect mobility (μ) ([2]; HMDS-modified substrate): 3.8×10^−1 cm^2/Vs
- field-effect mobility (μ) ([2]; PS substrate): 3.1×10^−2 cm^2/Vs
